Laboratory results: PubChem BioAssay AID1508588 (Peter MacCallum Cancer Centre, 2020)
Purpose: 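Knock-downs boosting vemurafenib effects on melanoma cell growth or lactate release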 (primary screen). Cell system: human WM266.4 melanoma cells (BRAF V600 mutant). Reagents: siRNA pool against human genes, 40 nM. Duration: 96 h from transfection to read-out. Conditions: vemurafenib 300 nM (about IC25), added 48 h after transfection, for 48 h; comparison arm got DMSO vehicle only. Measurement: 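Cell gain (DAPI nuclei at end minus before drug, mean of two replicates) and medium lactate by absorbance per cell, both as ratio to non-targeting siRNA, also grouped into fold-change classes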. Scale: cell gain with vemurafenib: higher = more cell gain than with non-targeting siRNA; lactate per cell with vemurafenib: higher = more lactate made per cell. Hit rule: 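Enhancement is called by pairing each knock-down's vehicle-arm and drug-arm fold-change classes for viability or glycolysis; which class combinations qualify is not given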. Calls: active = enhances vemurafenib effect; inactive = no enhancement seen.
Here is an unselected part of about 18,000 reagents tested. 790 of all reagents (4.4%) count as active. 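Calls rest on a combination of fold-change classes in drug and vehicle arms, not all shown here.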 Unmarked entries are inactive. The numbers tell different reagents against one gene apart.

gene knocked down	pool no.	cell gain with vemurafenib	lactate per cell with vemurafenib
CCDC14 (GeneID 64770)	1	0.95	1.14
ZDHHC7 (GeneID 55625)	1	1.06	0.4
SIL1 (GeneID 64374)	1	0.95	0.5
RAI14 (GeneID 26064)	1	0.71	0.81
L1TD1 (GeneID 54596)	1	0.35	1.77
FAM234A (GeneID 83986)	1	0.75	0.7
GLIPR1L1 (GeneID 256710)	1	0.59	0.72
CCDC63 (GeneID 160762)	1	0.58	1
CRKL (GeneID 1399)	1	0.89	0.63
RIPK3 (GeneID 11035)	1	0.66	0.76
AMY1A (GeneID 276)	1	0.64 (active)	0.56
RAD51C (GeneID 5889)	1	0.76	1
ORC5 (GeneID 5001)	1	0.84	0.92
YJU2 (GeneID 55702)	1	0.38	1.44
SMG5 (GeneID 23381)	1	0.68	0.9
RARA (GeneID 5914)	1	0.14	1.43
OR2V2 (GeneID 285659)	1	0.61	1.52
LINC00336 (GeneID 401253)	1	1.07	0.73
ANKHD1-EIF4EBP3 (GeneID 404734)	1	0.14 (active)	0.82
TDRP (GeneID 157695)	1	0.58	1.67
BKGD (GeneID 28970)	1	0.47 (active)	0.45
KLHL2 (GeneID 11275)	1	0.59	0.72
ARHGAP45 (GeneID 23526)	1	0.79	0.57
ALG14 (GeneID 199857)	1	0.57	0.39
UBIAD1 (GeneID 29914)	1	0.66 (active)	0.12
TTPAL (GeneID 79183)	1	0.27	1.81
MICB (GeneID 4277)	1	1.06	0.87
LCN10 (GeneID 414332)	1	0.51	2.16
RGL3 (GeneID 57139)	1	0.1	0.53
ADRB2 (GeneID 154)	1	0.46	2.59
CRY1 (GeneID 1407)	1	0.47	0.26
RGS7BP (GeneID 401190)	1	0.36	0.9
G3BP1 (GeneID 10146)	1	0.69	0.4
MEX3B (GeneID 84206)	1	1.08	1.02
CHMP7 (GeneID 91782)	1	0.69	0.82
C1orf54 (GeneID 79630)	1	0.82	0.85
ZNF436-AS1 (GeneID 148898)	1	1.28	0.6
COX7A2L (GeneID 9167)	1	0.68	0.56
PCDHGA10 (GeneID 56106)	1	0.38	0.76
NELFA (GeneID 7469)	1	0.63	0.49
CLECL1 (GeneID 160365)	1	0.59 (active)	0.36
KLC3 (GeneID 147700)	1	0.72	0.9
GARIN1A (GeneID 346653)	1	0.13 (active)	0.68
MS4A14 (GeneID 84689)	1	-0.08	0.95
DDAH1 (GeneID 23576)	1	0.82	0.8
AARSD1 (GeneID 80755)	1	0.61	0.98
ST3GAL3 (GeneID 6487)	1	0.29	1.48
SERPINB5 (GeneID 5268)	1	0.2	1.25
NODAL (GeneID 4838)	1	0.35 (active)	0.48
THBS4 (GeneID 7060)	1	0.58	1.62
AASDHPPT (GeneID 60496)	1	0.48	0.78
NTS (GeneID 4922)	1	1.01	0.3
CHRNA6 (GeneID 8973)	1	0.79	1.52
FMO5 (GeneID 2330)	1	1.08	1.23
ZNF239 (GeneID 8187)	1	0.79	1.05
TMEM89 (GeneID 440955)	1	0.02	0.73

Next part (12 carried over from the part before).
gene knocked down	pool no.	cell gain with vemurafenib	lactate per cell with vemurafenib
DDAH1 (GeneID 23576)	1	0.82	0.8
AARSD1 (GeneID 80755)	1	0.61	0.98
ST3GAL3 (GeneID 6487)	1	0.29	1.48
SERPINB5 (GeneID 5268)	1	0.2	1.25
NODAL (GeneID 4838)	1	0.35 (active)	0.48
THBS4 (GeneID 7060)	1	0.58	1.62
AASDHPPT (GeneID 60496)	1	0.48	0.78
NTS (GeneID 4922)	1	1.01	0.3
CHRNA6 (GeneID 8973)	1	0.79	1.52
FMO5 (GeneID 2330)	1	1.08	1.23
ZNF239 (GeneID 8187)	1	0.79	1.05
TMEM89 (GeneID 440955)	1	0.02	0.73
OBSCN (GeneID 84033)	1	0.39	1.44
OBSCN (GeneID 84033)	2	0.51	1.17
FAT4 (GeneID 79633)	1	0.57	0.88
IL38 (GeneID 84639)	1	0.5	0.5
SLC5A2 (GeneID 6524)	1	1.53	0.71
ZFP64 (GeneID 55734)	1	0.16	1.42
STAB2 (GeneID 55576)	1	0.4 (active)	0.38
BRI3 (GeneID 25798)	1	0.85	1.44
ZNF621 (GeneID 285268)	1	0.71	0.73
DDX6 (GeneID 1656)	1	0.43	1.07
SERP1 (GeneID 27230)	1	0.6	1.68
CAMK1 (GeneID 8536)	1	0.22	1.83
RTRAF (GeneID 51637)	1	0.41	1.14
OR1N1 (GeneID 138883)	1	0.17	1.27
PKM (GeneID 5315)	1	0.8	0.91
NTN4 (GeneID 59277)	1	1.27	0.54
OR6F1 (GeneID 343169)	1	0.47	1.45
COG7 (GeneID 91949)	1	0.68	0.96
ARAP2 (GeneID 116984)	1	0.68	0.95
RAE1 (GeneID 8480)	1	0.68	1.14
CHMP2A (GeneID 27243)	1	-0.15	5.93
CDKN1A (GeneID 1026)	1	0.91	0.68
RAET1G (GeneID 353091)	1	0.13	2.43
AGRN (GeneID 375790)	1	0.54	1.33
CNTN5 (GeneID 53942)	1	0.72	0.84
LDHB (GeneID 3945)	1	0.65	1.45
MEF2C (GeneID 4208)	1	0.99	1.27
CLTC (GeneID 1213)	1	0.47	2.18
